The list does not hold the whole screen: it is rich in T/C values a quarter to a half above the control, in often repeated tests (any T/C) and in doses without a T/C. Further doses and runs are listed elsewhere. T/C is the treated group as % of the vehicle group. Some entries give survivors of the animals treated and no T/C: the source holds a T/C of zero for them, seemingly a mark for toxic or unscored doses. Some survivor counts are full or nearly so, which does not show that the dose was tolerated: survival well below the control is almost never listed, so the zero probably covers shortened survival too. Survivors were counted at the toxicity check, usually on the fifth day, unless a day is given; later deaths do not show. Schedules are NCI's codes, taken here to give the interval after Q, in days (D) or hours (H), and the number of doses after X. Some structures stand for samples that the source files as different forms (salt, stereo form or complex); doses refer to the form tested. Where survival is the endpoint, the PubChem record calls one and a half times the control and up active, and a quarter to a half above the control has no call in these data; cut-offs in other NCI protocols can differ. Some entries were tested several times; their values stand side by side, smallest first.
Test system: BDF1 mice, P388 leukemia ip, median survival T/C
Experiment: NCI In Vivo Anticancer Drug Screen. Data for tumor model P388 Leukemia (intraperitoneal) in B6D2F1 (BDF1) mice
Settings: T/C endpoint: median survival time, higher T/C = longer survival
Procedure, shortened: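 Antitumour effect was judged in vivo: survival in drug-treated mice, normalised to that of vehicle-dosed controls, gives the reported T/C.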

[1] = dose: 200.0 mg/kg/injection, schedule: Q04DX003 (ip), vehicle: saline with Tween-80

## C[CH2][Sn]([CH2]C)([CH2]C)[NH]S(=O)(=O)c1ccc(C)cc1
dose: 1.56 mg/kg/injection, schedule: Q01DX009 (ip), vehicle: Klucel (hydroxypropylcellulose) (HPC)
  T/C: 125 % of control
dose: 28.0 mg/kg/injection, schedule: Q01DX001 (ip), vehicle: Klucel (hydroxypropylcellulose) (HPC)
  survivor count: 1 of 6
dose: 40.0 mg/kg/injection, schedule: Q01DX001 (ip), vehicle: Klucel (hydroxypropylcellulose) (HPC)
  survivor count: 0 of 6

## Cc1nnc2ncccn12
dose: 200.0 mg/kg/injection, schedule: Q01DX009 (ip), vehicle: saline
  T/C: 130 and 134 % of control
dose: 400.0 mg/kg/injection, schedule: Q01DX009 (ip), vehicle: saline
  survivor count: 2 of 6

## CCCCC1CCCCCCc2[nH]c(/C=C3\N=C(c4ccc[nH]4)C=C3OC)cc21 (stereo not given)
dose: 12.5 mg/kg/injection, schedule: Q01DX009 (ip), vehicle: saline with Tween-80
  survivor count: 2 of 6
dose: 25.0 mg/kg/injection, schedule: Q01DX009 (ip), vehicle: saline with Tween-80
  survivor count: 0 of 6
dose: 50.0 mg/kg/injection, schedule: Q01DX009 (ip), vehicle: saline with Tween-80
  survivor count: 0 of 6

## ClC1C2c3ccccc3C(C1Cl)[n+]1ccccc12 (stereo not given)
dose: 35.0 mg/kg/injection, schedule: Q01DX009 (ip), vehicle: Klucel (hydroxypropylcellulose) (HPC)
  survivor count: 1 of 6
dose: 50.0 mg/kg/injection, schedule: Q04DX003 (ip), vehicle: Klucel (hydroxypropylcellulose) (HPC)
  survivor count: 5 of 6

## NNC(=O)C(=O)NCc1ccco1
dose: 100.0 mg/kg/injection, schedule: Q01DX009 (ip), vehicle: saline with Tween-80
  survivor count: 0 of 6
dose: 200.0 mg/kg/injection, schedule: Q01DX009 (ip), vehicle: saline with Tween-80
  survivor count: 0 of 6

## CCOC(=O)C[n+]1ccccc1
dose: 150.0 mg/kg/injection, schedule: Q01DX009 (ip), vehicle: saline
  survivor count: 0 of 6
[1]
  survivor count: 5 of 6
dose: 225.0 mg/kg/injection, schedule: Q01DX009 (ip), vehicle: saline
  survivor count: 0 of 6
dose: 300.0 mg/kg/injection, schedule: Q04DX003 (ip), vehicle: saline
  survivor count: 1 of 6

## CCOC(=O)C(OCc1ccccc1)(C(=O)NCCc1ccc(OC)c(OC)c1)C(C)C (stereo not given)
dose: 200.0 mg/kg/injection, schedule: Q04DX003 (ip), vehicle: other
  survivor count: 6 of 6
dose: 400.0 mg/kg/injection, schedule: Q04DX003 (ip), vehicle: other
  survivor count: 5 of 6

## O=C(CCl)c1ccc[nH]1
dose: 100.0 mg/kg/injection, schedule: Q04DX003 (ip), vehicle: Klucel (hydroxypropylcellulose) (HPC)
  survivor count: 5 of 6

## CC12CCCCC1=Nc1ccc3ccccc3c12 (stereo not given)
dose: 50.0 mg/kg/injection, schedule: Q01DX009 (ip), vehicle: saline + alcohol
  survivor count: 0 of 6
dose: 200.0 mg/kg/injection, schedule: Q01DX009 (ip), vehicle: saline + alcohol
  survivor count: 0 of 6

## CC(=O)OC1=NC(C)c2c1cc(OC(C)=O)[nH]c2=O (stereo not given)
dose: 200.0 mg/kg/injection, schedule: Q04DX003 (ip), vehicle: Klucel (hydroxypropylcellulose) (HPC)
  T/C: 126 and 133 % of control
dose: 300.0 mg/kg/injection, schedule: Q04DX003 (ip), vehicle: Klucel (hydroxypropylcellulose) (HPC)
  survivor count: 6 of 6
dose: 400.0 mg/kg/injection, schedule: Q04DX003 (ip), vehicle: Klucel (hydroxypropylcellulose) (HPC)
  survivor count: 1 of 6

## Cc1cc2[nH]c(=O)c(=O)[nH]c2cc1C
dose: 150.0 mg/kg/injection, schedule: Q01DX009 (ip), vehicle: Klucel (hydroxypropylcellulose) (HPC)
  survivor count: 6 of 6
dose: 300.0 mg/kg/injection, schedule: Q01DX009 (ip), vehicle: Klucel (hydroxypropylcellulose) (HPC)
  survivor count: 3 of 6

## O=C(CC(C(=O)c1ccccc1)N1CC1)c1ccccc1 (stereo not given)
[1]
  survivor count: 3 of 6

## Cc1cc[n+]2cc3ccc4ccccc4c3c(C)c2c1
dose: 1.56 mg/kg/injection, schedule: Q01DX009 (ip), vehicle: saline
  T/C: 130 % of control
dose: 3.12 mg/kg/injection, schedule: Q01DX009 (ip), vehicle: saline
  T/C: 135 % of control
dose: 6.25 mg/kg/injection, schedule: Q01DX009 (ip), vehicle: saline
  survivor count: 5 of 6

— PubChem BioAssay AID328 (DTP/NCI, 2004)
